# Measurements as given in patent US20080166396A1, “Boronate Medicaments Suitable for Short Duration Anticoagulation” (Trigen Holdings AG Clareville House, priority 2004, published 2008).
# At least one compound was matched to its structure with a doubt left.
# Assay: Stability: HPLC assay before and after drying over phosphorus pentoxide for 1 week
# Format: physicochemical
# Protocol: An assay of TRI 50c and its sodium and lysine salts before and after drying.
# For sample analysis, 5 mg of dried and non-dried material was weighed in a 5 mL volumetric flask and dissolved in 1 mL acetonitrile and filled up with demineralised water to 5 mL.
# The quantitative evaluation was performed using an HPLC-PDA method.
compound,measurement,setting,value
"COCCC[C@H](NC(=O)[C@@H]1CCCN1C(=O)[C@@H](Cc1ccccc1)NC(=O)OCc1ccccc1)B(O)O [TRI 50c, Cbz-(R)-Phe-(S)-Pro-(R)-Mpg-B(OH)2]",Purity,dry (1 week over phosphorus pentoxide),82.00 % area
same,Amount,"dry (1 week over phosphorus pentoxide), 5 mg in 5 mL",1000.0 µg/mL
same,Purity,non-dried,85.54 % area
